Test results taken from patent publication US4568689A, “Pharmaceutical preparation for the treatment of hypertensive disease and myocardial infarction” (priority 1983, dated 1986).

Experiment: in vivo
Conditions: mouse, ip, intraperitoneal, white mice
Experimental: Acute toxicity measurements were carried out in experiments on white mongrel mice upon intraperitoneal administration. […]

SMILES: COC(=O)C1=C(C)NC(C)=C(C(=O)OC)C1c1ccccc1[N+](=O)[O-] [Nifedipine, reference compound]
- LD50: 185 mg/kg
